Laboratory results taken from PubChem BioAssay AID597 (National Center for Advancing Translational Sciences (NCATS), 2007).
About 60 (0.09%) of roughly 68,000 compounds were called active. The shares of active, inactive and inconclusive entries below differ from those in the screen. The call rests on the fitted dose curve; in most records, active means well fitted curve in the direction sought with a large enough effect; inconclusive means small, poorly fitted or top-dose-only effect; inactive means flat fitted curve, though single readings scatter. Where the call is inconclusive, the potency comes from a doubtful curve fit.

Assay: qHTS Assay for Epigenetic Modulators; on GFP derepression (activation): % of control where 0% means no effect
Settings: mouse C127i GFP locus derepression, cytometry, 30 h; series mostly up to 46.1 µM
Procedure, shortened: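 Derepression screen: silenced CMV-GFP reporter in murine C127i cells, 30 h compound incubation at 37 C, washed cells imaged by laser-scanning cytometer to enumerate GFP-expressing objects of 20 to 120 um.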

SMILES | Potency | GFP derepression (activation)
CC(=O)NC(c1ccco1)c1ccc2cccnc2c1O (stereo not given) | inconclusive: 31.6 µM [single point] | 
N#CC(C(=O)NCc1ccccc1)c1nc2ccccc2nc1N1CCCC1 (stereo not given) | inconclusive: 20 µM [single point] | 
Cc1ccc2[nH]c(=O)c(CN(CCc3ccccc3)C(c3nnnn3Cc3ccco3)C(C)C)cc2c1 (stereo not given) | inconclusive: 25.1 µM [single point] | 
COc1ccc(Nc2ncc3nc(-c4cccs4)c(=O)n(Cc4cccc(OC)c4)c3n2)cc1 | inconclusive: 1 µM [single point] | 
Cc1ccc(-n2nc(C)c(C3C(C#N)=C(N)OC4=C3C(=O)CC(C)(C)C4)c2Cl)cc1 (stereo not given) | inactive | 
CC(=O)c1sc(Nc2nc3ccc(F)cc3s2)nc1C | inconclusive: 25.1 µM [single point] | 
Cn1c(=O)cc(NCc2ccccc2)[nH]c1=O | inconclusive: 3.98 µM [single point] | 
CCCC(=O)Nc1cccc(-c2nc3ccccc3o2)c1 | inactive | 
CCc1ccc(N2C(=O)c3sc4nnc(C)c(=O)n4c3C2=O)cc1 | active: 10 µM | 
CC(Oc1ccc(Cl)cc1)C(=O)Nc1nccs1 (stereo not given) | inconclusive: 5.01 µM [single point] | 
CCN(CC)S(=O)(=O)c1ccc2c(c1)c(=O)c(C(=O)NCCN(C)CCc1ccccc1)cn2C | inconclusive: 3.98 µM [single point] | 
O=S1(=O)N=C(Oc2ccccc2)c2ccccc21 | inconclusive: 31.6 µM [single point] | 
CC1N(C)c2cc(NC(=O)c3ccco3)ccc2C1(C)C (stereo not given) | inactive | 
CCNc1ncc2ncc(=O)n(Cc3ccc(F)cc3)c2n1 | inconclusive: 1.26 µM [single point] | 
CCC(c1nnnn1Cc1cccs1)N1CCN(C2CCCC2)CC1 (stereo not given) | inactive | 
CN(C)S(=O)(=O)c1ccc2c(c1)/C(=C/c1cc3c([nH]1)CCCC3)C(=O)N2 | active: 15.8 µM | 
CN(C)CCC(=O)[C@@]1(O)CC[C@H]2[C@H]3CC=C4C[C@@H](O)CC[C@]4(C)[C@H]3CC[C@]21C | inconclusive: 5.01 µM [single point] | 
CC(c1ccco1)N(C(=O)COc1ccc(Cl)cc1Cl)c1ccccn1 (stereo not given) | inactive | 
COCCn1c(=O)cnc2cnc(Nc3cccc(OC)c3)nc21 |  | inactive: 2.7% [at 9.22 µM]
CC1CC(C)CN(C(=O)CCCn2c(=S)[nH]c3ccccc3c2=O)C1 (stereo not given) | inconclusive: 31.6 µM [single point] | 
COC(=O)c1sc(NC(=O)c2ccc(Cn3cc(Cl)cn3)o2)c(C#N)c1C | inconclusive: 31.6 µM [single point] | 
Cc1cccc2cc3c(nc12)SC(=NCC1CCCO1)N(Cc1ccco1)C3 (stereo not given) | active: 3.16 µM | 
CC1(C)[C@@H]2CC[C@]1(C)[C@@H](OC(=O)CSC#N)C2 | inconclusive: 5.01 µM [single point] | 
CCC1(C)Cc2ccccc2/C(=C/C(=O)N2CCCCC2)N1 (stereo not given) | inactive | 

SMILES | Potency | GFP derepression (activation)
O=C1c2c(O)ccc(O)c2C(=O)c2c(NCCNCCO)ccc(NCCNCCO)c21 | inconclusive: 12.6 µM [single point] | 
O=C(NCc1ccco1)c1cccc2ccccc12 | inactive | 
O=C(Nc1ccccc1)N(CCCN1CCOCC1)Cc1cc2cc3c(cc2[nH]c1=O)OCCO3 | inconclusive: 20 µM [single point] | 
N#Cc1c(NCCCO)nc(-c2ccccc2)c2c1CCCC2 | inconclusive: 5.01 µM [single point] | 
C=C(C)COc1ccc(-c2nc(N)ncc2Oc2ccc(OC)cc2)c(O)c1 | inconclusive: 20 µM [single point] | 
CCOc1ccc(NC(=O)CC2CC(C)(C)OC2=O)cc1 (stereo not given) | inactive | 
Cc1cccc(Cl)c1OCCCCn1ccnc1 | inconclusive: 31.6 µM [single point] | 
COc1ccc(-c2nnc(SC(=O)N3c4ccccc4Sc4ccccc43)o2)cc1 | inactive | 
CCOC(=O)C1CCN(C(c2cc3c(C)ccc(C)c3[nH]c2=O)c2nnnn2C2CCCCC2)CC1 (stereo not given) | inconclusive: 5.01 µM [single point] | 
COc1cc(-c2nnc(COc3ccc4ccccc4c3)o2)cc(OC)c1OC | inconclusive: 31.6 µM [single point] | 
CC1CCN(c2nc3ccccc3nc2C(C#N)C(=O)NC2CCCCC2)CC1 (stereo not given) | inconclusive: 31.6 µM [single point] | 
COc1ccccc1NC(=O)CSc1nc2nc(C)cc(C)c2c(=O)[nH]1 | inactive | 
COc1cccc(C(=O)Cn2c(=N)n(C)c3ccccc32)c1 | inactive | 
O=C(O)/C=C\C(=O)Nc1ncn[nH]1 |  | inactive: -2.2% [at 9.22 µM]
COCCN1Cc2cccc(C(=O)Nc3ccc(S(=O)(=O)N4CCCCC4)cc3)c2C1=O | inactive | 
COC(=O)c1ccc(CSc2nnc3n(Cc4ccccc4OC)c(=O)c4ccccc4n23)o1 | inconclusive: 31.6 µM [single point] | 
C[N+](C)(C)CC(=O)N/N=C\c1ccncc1 |  | inactive: 5.6% [at 9.22 µM]
O=C(CCS(=O)(=O)Cc1ccccc1)NCC1CCCO1 (stereo not given) | inconclusive: 20 µM [single point] | 
CCOC(=O)c1[nH]c2cc3c(cc2c1NC(=O)CN1CCC2(CC1)OCCO2)OCO3 | inconclusive: 5.01 µM [partial curve] | 
N#CC(C(=O)NC1CCCCC1)c1nc2ccccc2nc1N1CCN(c2ccc(F)cc2)CC1 (stereo not given) | inconclusive: 31.6 µM [single point] | 
CN1CC2=Cc3ccccc3OC23Oc2ccccc2C=C3C1 | inconclusive: 31.6 µM [single point] | 
c1ccc(/N=C2\N=C(Nc3ccccn3)c3ccccc32)nc1 | active: 12.6 µM | 
COc1ccc(-c2ccc(C(=S)N3CCN(C(C)=O)CC3)o2)cc1 | inconclusive: 31.6 µM [single point] | 
Fc1cccc(Cl)c1/C=N\N=C1c2ccccc2-c2ccccc21 |  | inactive: 13.8% [at 9.22 µM]
COc1ccc(CNC(=O)c2cc3c(=O)n4ccccc4nc3n(Cc3ccco3)c2=N)cc1 | inconclusive: 25.1 µM [single point] | 
